Assay results taken from patent US7199218B1, “ICBP90 polypeptide and its fragments and polynucleotides coding for said polypeptides and applications for diagnosing and treating cancer” (Institut National de la Sante et de la Recherche Medicale …, priority 1999, dated 2007).
These are yes or no findings as the source states them, for the method shown. Some binding calls cover weakened binding; strength is not graded here.

The chains behind the UniProt entries cited, without tags or fusion partners.
UniProt Q92993: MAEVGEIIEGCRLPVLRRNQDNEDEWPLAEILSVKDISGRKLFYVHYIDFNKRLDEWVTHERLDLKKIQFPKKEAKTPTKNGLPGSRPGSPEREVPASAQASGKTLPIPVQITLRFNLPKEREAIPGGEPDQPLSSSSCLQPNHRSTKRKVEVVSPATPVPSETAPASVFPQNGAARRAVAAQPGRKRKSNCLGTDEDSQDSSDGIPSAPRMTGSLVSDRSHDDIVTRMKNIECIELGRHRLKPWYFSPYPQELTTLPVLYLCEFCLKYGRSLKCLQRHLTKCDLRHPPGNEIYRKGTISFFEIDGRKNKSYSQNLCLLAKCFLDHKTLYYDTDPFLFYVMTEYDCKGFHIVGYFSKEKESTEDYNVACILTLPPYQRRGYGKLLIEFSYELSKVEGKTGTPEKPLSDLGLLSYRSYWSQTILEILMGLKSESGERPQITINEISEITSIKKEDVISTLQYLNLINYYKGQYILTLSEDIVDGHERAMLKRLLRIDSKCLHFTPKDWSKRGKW

Biological target: TIP60 (Tat Interactive Protein, 60 kDa) (Homo sapiens, UniProt Q92993)
Experiment: double-hybrid (two-hybrid) technique

B1: ICBP90 (Inverted CCAAT Box Binding Protein of 90 kDa) (protein)
chain: MWIQVRTMDGRQTHTVDSLSRLTKVEELRRKIQELFHVEPGLQRLFYRGKQMEDGHTLFDYEVRLNDTIQLLVRQSLVLPHSTKERDSELSDTDSGCCLGQSESDKSSTHGEAAAETDSRPADEDMWDETELGLYKVNEYVDARDTNMGAWFEAQVVRVTRKAPSRDEPCSSTSRPALEEDVIYHVKYDDYPENGVVQMNSRDVRARARTIIKWQDLEVGQVVMLNYNPDNPKERGFWYDAEISRKRETRTARELYANVVLGDDSLNDCRIIFVDEVFKIERPGEGSPMVDNPMRRKSGPSCKHCKDDVNRLCRVCACHLCGGRQDPDKQLMCDECDMAFHIYCLDPPLSSVPSEDEWYCPECRNDASEVVLAGERLRESKKNAKMASATSSSQRDWGKGMACVGRTKECTIVPSNHYGPIPGIPVGTMWRFRVQVSESGVHRPHVAGIHGRSNDGSYSLVLAGGYEDDVDHGNFFTYTGSGGRDLSGNKRTAEQSCDQKLTNTNRALALNCFAPINDQEGAEAKDWRSGKPVRVVRNVKGGKNSKYAPAEGNRYDGIYKVVKYWPEKGKSGFLVWRYLLRRDDDEPGPWTKEGKDRIKKLGLTMQYPEGYLEALANREREKENSKREEEEQQEGGFASPRTGKGKWKRKSAGGGPSRAGSPRRTSKKTKVEPYSLTAQQSSLIREDKSNAKLWNEVLASLKDRPASGSPFQLFLSKVEETFQCICCQELVFRPITTVCQHNVCKDCLDRSFRAQVFSCPACRYDLGRSYAMQVNQPLQTVLNQLFPGYGNGR
With B1 the binding was “binds”.
